For at least one entry, the source does not settle the construct or the ends of the probe. No signal at the amounts used counts as a negative. At least one verdict rests on a figure or table, not on a statement of the authors. Where a protein sequence is shown, tags need not be part of it. The direction of at least one scale is not stated here.
biological target: T1, RdfS (Mesorhizobium japonicum R7A (ICEMlSymR7A)) (UniProt Q7AL96); assay: SPR; conditions: 1 uM; SPR: ReDCaT on Biacore T200, 1 uM protein; temperature not given; recombinant protein; residues 1-89; protein details: N-terminal 6xHis removed after purification; label: 5' biotin on S36
T1 sequence (looked up): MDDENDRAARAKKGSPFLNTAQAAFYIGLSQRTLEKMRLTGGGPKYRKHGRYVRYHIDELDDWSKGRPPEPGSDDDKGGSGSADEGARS

Row | Sequence | binding result | binding signal (% of attP 8 Rmax)
1 | GAATTTCGGCGCAGTTGGTCCAACGAGGCGGGGGGCTGGA / TCCAGCCCCCCGCCTCGTTGGACCAACTGCGCCGAAATTCCCTACCCTACGTCCTCCTGC / GCAGGAGGACGTAGGGTAGG [attP_8_M40] | binds | 
2 | GAATTTCGGCGCAGTTCGTCCAACGAGGCGGGGGGCTGGT / ACCAGCCCCCCGCCTCGTTGGACGAACTGCGCCGAAATTCCCTACCCTACGTCCTCCTGC / GCAGGAGGACGTAGGGTAGG [attP_8_M17] | binds | 
3 | GAATTTCGGCGGAGTTGGTCCAACGAGGCGGGGGGCTGGT / ACCAGCCCCCCGCCTCGTTGGACCAACTCCGCCGAAATTCCCTACCCTACGTCCTCCTGC / GCAGGAGGACGTAGGGTAGG [attP_8_M12] | binds | 
4 | GAATTTCGCCGCAGTTGGTCCAACGAGGCGGGGGGCTGGT / ACCAGCCCCCCGCCTCGTTGGACCAACTGCGGCGAAATTCCCTACCCTACGTCCTCCTGC / GCAGGAGGACGTAGGGTAGG [attP_8_M09] | binds | 
5 | GCAGTTGGTCCAACGAGGCG / CGCCTCGTTGGACCAACTGCCCTACCCTACGTCCTCCTGC / GCAGGAGGACGTAGGGTAGG [attP8_3 20-mer] |  | < 45
6 | GAATTTCGGCGCAGTTGGTCCAACCAGGCGGGGGGCTGGT / ACCAGCCCCCCGCCTGGTTGGACCAACTGCGCCGAAATTCCCTACCCTACGTCCTCCTGC / GCAGGAGGACGTAGGGTAGG [attP_8_M25] | binds | 
7 | GACGACCTCGTTCGCCGATC / GATCGGCGAACGAGGTCGTCCCTACCCTACGTCCTCCTGC / GCAGGAGGACGTAGGGTAGG [PrdfS4_5 20-mer] | no binding | 
8 | GAATTTCGGCGCAGTTGGTCCAACGAGGCCGGGGGCTGGT / ACCAGCCCCCGGCCTCGTTGGACCAACTGCGCCGAAATTCCCTACCCTACGTCCTCCTGC / GCAGGAGGACGTAGGGTAGG [attP_8_M30] | binds | 
9 | GAATTTCGGCGCAGTTGGTCCAACGAGGCGGGGGGCTCGT / ACGAGCCCCCCGCCTCGTTGGACCAACTGCGCCGAAATTCCCTACCCTACGTCCTCCTGC / GCAGGAGGACGTAGGGTAGG [attP_8_M38] | binds | 
10 | GAATTTCGGCGCAGTTGGTCCAACGTGGCGGGGGGCTGGT / ACCAGCCCCCCGCCACGTTGGACCAACTGCGCCGAAATTCCCTACCCTACGTCCTCCTGC / GCAGGAGGACGTAGGGTAGG [attP_8_M26] | binds | 
11 | GAATTTCGGCGCAGTTGGTCCAACGAGGCGGGGGGCAGGT / ACCTGCCCCCCGCCTCGTTGGACCAACTGCGCCGAAATTCCCTACCCTACGTCCTCCTGC / GCAGGAGGACGTAGGGTAGG [attP_8_M37] | binds | 
12 | GTATTTCGGCGCAGTTGGTCCAACGAGGCGGGGGGCTGGT / ACCAGCCCCCCGCCTCGTTGGACCAACTGCGCCGAAATACCCTACCCTACGTCCTCCTGC / GCAGGAGGACGTAGGGTAGG [attP_8_M02] | binds | 
13 | GAATTTCGGCGCAGTTGGACCAACGAGGCGGGGGGCTGGT / ACCAGCCCCCCGCCTCGTTGGTCCAACTGCGCCGAAATTCCCTACCCTACGTCCTCCTGC / GCAGGAGGACGTAGGGTAGG [attP_8_M19] | binds | 
14 | GAATTTCGGCGCAGTTGGTCCAACGAGGCGGCGGGCTGGT / ACCAGCCCGCCGCCTCGTTGGACCAACTGCGCCGAAATTCCCTACCCTACGTCCTCCTGC / GCAGGAGGACGTAGGGTAGG [attP_8_M32] | binds | 
15 | GAATTTCGGCGCAGTTGGTCCAACGAGGCGGGGGGCTGCT / AGCAGCCCCCCGCCTCGTTGGACCAACTGCGCCGAAATTCCCTACCCTACGTCCTCCTGC / GCAGGAGGACGTAGGGTAGG [attP_8_M39] | binds | 
16 | TCGGCGCAGTTGGTCCAACG / CGTTGGACCAACTGCGCCGACCTACCCTACGTCCTCCTGC / GCAGGAGGACGTAGGGTAGG [attP8_2 20-mer] |  | < 45
17 | GAAATTCGGCGCAGTTGGTCCAACGAGGCGGGGGGCTGGT / ACCAGCCCCCCGCCTCGTTGGACCAACTGCGCCGAATTTCCCTACCCTACGTCCTCCTGC / GCAGGAGGACGTAGGGTAGG [attP_8_M04] | binds | 
18 | GACTCTTCGCCCGTCCCCAC / GTGGGGACGGGCGAAGAGTCCCTACCCTACGTCCTCCTGC / GCAGGAGGACGTAGGGTAGG [PrdfS4_1 20-mer] | no binding | 
19 | GAAGGGGCGGCGAAAACTCCCACCCGACTCTTCGCCCGTC / GACGGGCGAAGAGTCGGGTGGGAGTTTTCGCCGCCCCTTCCCTACCCTACGTCCTCCTGC / GCAGGAGGACGTAGGGTAGG [PrdfS_3] | no binding | 
20 | CGGGGGTTCCCGCCGACGCTCGCCCGAAGGGGCGGCGAAA / TTTCGCCGCCCCTTCGGGCGAGCGTCGGCGGGAACCCCCGCCTACCCTACGTCCTCCTGC / GCAGGAGGACGTAGGGTAGG [PrdfS_2] | no binding | 
21 | GAATTTCGGCGCTGTTGGTCCAACGAGGCGGGGGGCTGGT / ACCAGCCCCCCGCCTCGTTGGACCAACAGCGCCGAAATTCCCTACCCTACGTCCTCCTGC / GCAGGAGGACGTAGGGTAGG [attP_8_M13] | binds | 

Row | Sequence | binding result | binding signal (% of attP 8 Rmax)
22 | GAATTTCGGCGCAGTTGCTCCAACGAGGCGGGGGGCTGGT / ACCAGCCCCCCGCCTCGTTGGAGCAACTGCGCCGAAATTCCCTACCCTACGTCCTCCTGC / GCAGGAGGACGTAGGGTAGG [attP_8_M18] | binds | 
23 | GAATTTCGGCGCAGTTGGTCCAACGAGGCGCGGGGCTGGT / ACCAGCCCCGCGCCTCGTTGGACCAACTGCGCCGAAATTCCCTACCCTACGTCCTCCTGC / GCAGGAGGACGTAGGGTAGG [attP_8_M31] | binds | 
24 | CCTCGTTCGCCGATCCTCGCGGTTGCTTGTCCGAAGCGAA / TTCGCTTCGGACAAGCAACCGCGAGGATCGGCGAACGAGGCCTACCCTACGTCCTCCTGC / GCAGGAGGACGTAGGGTAGG [PrdfS_5] | no binding | 
25 | CAAGCCCTCGCGCCGCAACTCGGCGCGGGGGTTCCCGCCG / CGGCGGGAACCCCCGCGCCGAGTTGCGGCGCGAGGGCTTGCCTACCCTACGTCCTCCTGC / GCAGGAGGACGTAGGGTAGG [PrdfS_1] | no binding | 
26 | GATTTTCGGCGCAGTTGGTCCAACGAGGCGGGGGGCTGGT / ACCAGCCCCCCGCCTCGTTGGACCAACTGCGCCGAAAATCCCTACCCTACGTCCTCCTGC / GCAGGAGGACGTAGGGTAGG [attP_8_M03] | binds | 
27 | GAATTTCCGCGCAGTTGGTCCAACGAGGCGGGGGGCTGGT / ACCAGCCCCCCGCCTCGTTGGACCAACTGCGCGGAAATTCCCTACCCTACGTCCTCCTGC / GCAGGAGGACGTAGGGTAGG [attP_8_M08] | binds | 
28 | GAATTTCGGGGCAGTTGGTCCAACGAGGCGGGGGGCTGGT / ACCAGCCCCCCGCCTCGTTGGACCAACTGCCCCGAAATTCCCTACCCTACGTCCTCCTGC / GCAGGAGGACGTAGGGTAGG [attP_8_M10] | binds | 
29 | GAATTTCGGCGCAGTTGGTCGAACGAGGCGGGGGGCTGGT / ACCAGCCCCCCGCCTCGTTCGACCAACTGCGCCGAAATTCCCTACCCTACGTCCTCCTGC / GCAGGAGGACGTAGGGTAGG [attP_8_M21] | binds | 
30 | GAATTTCGGCCCAGTTGGTCCAACGAGGCGGGGGGCTGGT / ACCAGCCCCCCGCCTCGTTGGACCAACTGGGCCGAAATTCCCTACCCTACGTCCTCCTGC / GCAGGAGGACGTAGGGTAGG [attP_8_M11] | binds | 
31 | GAATTTCGGCGCAGTTGGTGCAACGAGGCGGGGGGCTGGT / ACCAGCCCCCCGCCTCGTTGCACCAACTGCGCCGAAATTCCCTACCCTACGTCCTCCTGC / GCAGGAGGACGTAGGGTAGG [attP_8_M20] | binds | 
32 | GAATTTCGGCGCAGTTGGTCCAACGAGCCGGGGGGCTGGT / ACCAGCCCCCCGGCTCGTTGGACCAACTGCGCCGAAATTCCCTACCCTACGTCCTCCTGC / GCAGGAGGACGTAGGGTAGG [attP_8_M28] | binds | 
33 | GAATTTCGGCGCAGTTGGTCCAACGACGCGGGGGGCTGGT / ACCAGCCCCCCGCGTCGTTGGACCAACTGCGCCGAAATTCCCTACCCTACGTCCTCCTGC / GCAGGAGGACGTAGGGTAGG [attP_8_M27] | binds | 
34 | GAATTTCGGCGCAGTTGGTCCAACGAGGGGGGGGGCTGGT / ACCAGCCCCCCCCCTCGTTGGACCAACTGCGCCGAAATTCCCTACCCTACGTCCTCCTGC / GCAGGAGGACGTAGGGTAGG [attP_8_M29] | binds | 
35 | GAATATCGGCGCAGTTGGTCCAACGAGGCGGGGGGCTGGT / ACCAGCCCCCCGCCTCGTTGGACCAACTGCGCCGATATTCCCTACCCTACGTCCTCCTGC / GCAGGAGGACGTAGGGTAGG [attP_8_M05] | binds | 
36 | GAATTTCGGCGCAGTTGGTCCATCGAGGCGGGGGGCTGGT / ACCAGCCCCCCGCCTCGATGGACCAACTGCGCCGAAATTCCCTACCCTACGTCCTCCTGC / GCAGGAGGACGTAGGGTAGG [attP_8_M23] | binds | 
37 | CCGTCCCCACGACGACCTCG / CGAGGTCGTCGTGGGGACGGCCTACCCTACGTCCTCCTGC / GCAGGAGGACGTAGGGTAGG [PrdfS4_3 20-mer] | no binding | 
38 | TGGTCCAACGAGGCGGGGGG / CCCCCCGCCTCGTTGGACCACCTACCCTACGTCCTCCTGC / GCAGGAGGACGTAGGGTAGG [attP8_4 20-mer] |  | < 45
39 | GAATTTCGGCGCAGTTGGTCCAAGGAGGCGGGGGGCTGGT / ACCAGCCCCCCGCCTCCTTGGACCAACTGCGCCGAAATTCCCTACCCTACGTCCTCCTGC / GCAGGAGGACGTAGGGTAGG [attP_8_M24] | binds | 
40 | GAATTTCGGCGCAGTTGGTCCTACGAGGCGGGGGGCTGGT / ACCAGCCCCCCGCCTCGTAGGACCAACTGCGCCGAAATTCCCTACCCTACGTCCTCCTGC / GCAGGAGGACGTAGGGTAGG [attP_8_M22] | binds | 
41 | GAATTTCGGCGCACTTGGTCCAACGAGGCGGGGGGCTGGT / ACCAGCCCCCCGCCTCGTTGGACCAAGTGCGCCGAAATTCCCTACCCTACGTCCTCCTGC / GCAGGAGGACGTAGGGTAGG [attP_8_M14] | binds | 
42 | GAATTTGGGCGCAGTTGGTCCAACGAGGCGGGGGGCTGGT / ACCAGCCCCCCGCCTCGTTGGACCAACTGCGCCCAAATTCCCTACCCTACGTCCTCCTGC / GCAGGAGGACGTAGGGTAGG [attP_8_M07] | binds | 
